Measured values: article PMC9202214
Results are given in words; binding and its absence hold for the method and conditions named. In cells and extracts the contact can be indirect. Some entries that bind do so weakly or less than the wild type.

By UniProt entry, the sequences of proteins in these tests, tags left out. Where a name states a change or a piece, a line headed by the entry shows the natural chain unless it says otherwise.
UniProt Q9Y3D6: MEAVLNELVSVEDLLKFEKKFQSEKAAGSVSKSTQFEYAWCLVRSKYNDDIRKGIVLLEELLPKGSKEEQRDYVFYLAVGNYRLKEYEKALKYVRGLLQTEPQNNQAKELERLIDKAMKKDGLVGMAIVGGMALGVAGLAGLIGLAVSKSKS
UniProt O00429: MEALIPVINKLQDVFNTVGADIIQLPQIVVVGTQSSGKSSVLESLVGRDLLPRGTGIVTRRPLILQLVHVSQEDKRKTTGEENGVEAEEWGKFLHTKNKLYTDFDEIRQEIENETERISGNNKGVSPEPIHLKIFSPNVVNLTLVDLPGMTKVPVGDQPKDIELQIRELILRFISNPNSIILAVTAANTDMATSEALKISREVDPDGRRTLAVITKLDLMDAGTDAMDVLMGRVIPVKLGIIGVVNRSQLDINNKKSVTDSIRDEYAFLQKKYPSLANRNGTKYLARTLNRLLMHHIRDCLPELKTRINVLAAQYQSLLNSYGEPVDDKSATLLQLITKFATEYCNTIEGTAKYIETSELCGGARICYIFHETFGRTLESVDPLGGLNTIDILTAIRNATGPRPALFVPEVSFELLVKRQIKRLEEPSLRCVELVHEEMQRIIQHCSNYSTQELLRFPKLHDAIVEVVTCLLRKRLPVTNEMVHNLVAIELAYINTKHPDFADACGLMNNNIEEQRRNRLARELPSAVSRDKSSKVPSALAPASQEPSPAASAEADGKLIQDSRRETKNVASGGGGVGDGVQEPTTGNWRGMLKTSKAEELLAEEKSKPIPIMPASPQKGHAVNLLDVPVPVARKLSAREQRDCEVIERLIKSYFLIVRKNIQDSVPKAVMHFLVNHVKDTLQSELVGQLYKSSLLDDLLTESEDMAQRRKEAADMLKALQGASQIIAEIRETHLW

Columns and labels:
[1] = target: mitochondrial fission 1 protein (human (endogenous in HCAECs)) (UniProt Q9Y3D6); test: co-IP; HCAEC lysates (50 mM Tris-HCl pH 8.0, 150 mM NaCl, 1 mM EDTA, 1% Triton X-100, 0.5% sodium deoxycholate) incubated with Protein G-agarose beads and the indicated antibodies overnight at 4 °C, immunoblot; cells subjected to sI/R injury, with or without empagliflozin (10 µM, 12 h before), with or without transfection of Drp1^S616D or Fis1^T34D; which protein was precipitated is not told
[2] = target: Fis1 phosphorylation-mimetic mutant (Fis1^T34D) (UniProt Q9Y3D6); test: as above

In the case of “dynamin-related protein 1 (from UniProt O00429 1-736)”, the binding [1] is reported as “binds” and the binding [2] is reported as “binds”.
